Data taken from paper doi:10.1101/2022.03.04.482944.
Results are given in words; binding and its absence hold for the method and conditions named.

Amino acid sequences for entries named in this document (tags omitted). Residues count along the entry.
UniProt P36894, residues 24-532: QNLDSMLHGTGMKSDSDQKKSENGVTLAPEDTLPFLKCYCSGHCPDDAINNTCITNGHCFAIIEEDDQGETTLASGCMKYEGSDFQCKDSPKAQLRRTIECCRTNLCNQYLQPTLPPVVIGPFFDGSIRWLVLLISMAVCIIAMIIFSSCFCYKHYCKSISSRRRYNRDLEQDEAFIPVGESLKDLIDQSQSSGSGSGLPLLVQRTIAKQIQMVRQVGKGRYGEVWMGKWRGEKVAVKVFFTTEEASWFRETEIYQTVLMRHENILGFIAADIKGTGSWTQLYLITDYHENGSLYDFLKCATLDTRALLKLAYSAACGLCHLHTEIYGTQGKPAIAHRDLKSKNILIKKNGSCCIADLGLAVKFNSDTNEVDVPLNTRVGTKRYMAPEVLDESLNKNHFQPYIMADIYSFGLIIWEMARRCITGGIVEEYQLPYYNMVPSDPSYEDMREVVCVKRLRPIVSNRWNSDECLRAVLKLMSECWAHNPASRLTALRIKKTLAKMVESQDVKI
UniProt O00238, residues 14-502: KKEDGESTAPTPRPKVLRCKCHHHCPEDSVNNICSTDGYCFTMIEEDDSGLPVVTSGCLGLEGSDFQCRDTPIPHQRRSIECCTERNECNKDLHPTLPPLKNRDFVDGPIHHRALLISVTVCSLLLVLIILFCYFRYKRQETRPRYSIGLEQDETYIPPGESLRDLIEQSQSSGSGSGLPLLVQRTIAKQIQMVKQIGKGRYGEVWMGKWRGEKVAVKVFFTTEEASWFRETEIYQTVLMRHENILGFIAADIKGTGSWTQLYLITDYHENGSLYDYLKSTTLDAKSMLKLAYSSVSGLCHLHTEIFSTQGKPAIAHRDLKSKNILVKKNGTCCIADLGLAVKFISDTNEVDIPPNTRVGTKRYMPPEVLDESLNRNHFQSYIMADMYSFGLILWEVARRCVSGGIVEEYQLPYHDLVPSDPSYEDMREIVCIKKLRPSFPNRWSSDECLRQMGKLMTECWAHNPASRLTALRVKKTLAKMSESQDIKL
UniProt Q13705, residues 19-512: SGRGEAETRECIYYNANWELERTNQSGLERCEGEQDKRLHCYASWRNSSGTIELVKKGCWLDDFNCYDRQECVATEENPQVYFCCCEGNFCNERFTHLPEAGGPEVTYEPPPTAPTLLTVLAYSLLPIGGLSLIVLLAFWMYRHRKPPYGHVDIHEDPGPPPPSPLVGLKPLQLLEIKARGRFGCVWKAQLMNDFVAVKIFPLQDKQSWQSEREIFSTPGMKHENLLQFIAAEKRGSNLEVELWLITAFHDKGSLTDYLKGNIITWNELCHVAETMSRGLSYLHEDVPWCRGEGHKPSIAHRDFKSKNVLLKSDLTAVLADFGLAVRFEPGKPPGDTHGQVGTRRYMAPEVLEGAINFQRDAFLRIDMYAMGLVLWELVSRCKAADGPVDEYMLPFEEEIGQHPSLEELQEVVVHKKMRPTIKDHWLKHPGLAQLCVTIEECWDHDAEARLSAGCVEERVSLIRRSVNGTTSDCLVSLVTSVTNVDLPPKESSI

What was measured:
Assay in all cases: Ligand Surface Binding Assay
[1] = biological target: ALK3-Halo (human) (UniProt P36894)
[2] = biological target: T1, ALK4-Halo (human) (UniProt P36896)
T1 sequence: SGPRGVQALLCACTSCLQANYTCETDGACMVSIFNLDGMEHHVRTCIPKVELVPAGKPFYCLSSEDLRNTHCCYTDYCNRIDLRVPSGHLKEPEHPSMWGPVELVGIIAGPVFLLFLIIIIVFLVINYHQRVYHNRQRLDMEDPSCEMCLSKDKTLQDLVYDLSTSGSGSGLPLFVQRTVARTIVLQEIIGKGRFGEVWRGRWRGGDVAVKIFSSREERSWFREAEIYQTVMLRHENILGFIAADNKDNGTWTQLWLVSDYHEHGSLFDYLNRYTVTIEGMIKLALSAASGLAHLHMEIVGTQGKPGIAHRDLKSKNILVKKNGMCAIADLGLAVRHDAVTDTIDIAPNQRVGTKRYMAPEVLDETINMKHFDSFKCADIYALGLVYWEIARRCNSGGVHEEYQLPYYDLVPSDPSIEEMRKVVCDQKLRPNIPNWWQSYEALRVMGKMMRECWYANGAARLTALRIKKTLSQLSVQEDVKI

[3] = biological target: ALK6-Halo (human) (UniProt O00238)
[4] = biological target: ACVR2B-Halo (human) (UniProt Q13705)

Measured: binding

B1: BMP9-SiR-d12 (ligand, UniProt Q9UK05 320-429)
chain: SAGAGSHCQKTSLRVNFEDIGWDSWIIAPKEYEAYECKGGCFFPLADDVTPTKHAIVQTLVHLKFPTKVGKACCVPTKLSPISVLYKDDMGVPTLKYHYEGMSVAECGCR
modifications: SiR-d12 label (NHS-SiR-d12 ester, 5-fold molar excess)
no binding (tested: 0.3 nM): all assays above
